Values from PubChem BioAssay AID504784 (Drosophila RNAi Screening Center, 2011).

- Assay: 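Fly genes whose silencing alters how much lipid cells keep in droplets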 (primary screen)
- System: Drosophila Kc167 embryonic cells
- Reagents: long dsRNA against Drosophila genes, about 250 ng dsRNA per well
- Timing: 4 days
- Challenge: cells fed 400 µM oleic acid bound to BSA
- Measured: 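Cells imaged and segmented; ratio of lipid droplet area to nuclear area, log-transformed, then normalised as a B-score over the screen; higher means more stored lipid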
- Reading the numbers: droplet/nuclear area B-score: higher = more stored lipid (overstorage)
The screen tested about 17,000 reagents; shown is an unselected part of those with a known target gene and a result. 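Each column is one replicate's B-score; the combined score over replicates was not deposited, so single values may mislead.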 The numbers tell different reagents against one gene apart. Names joined by + are all predicted targets of the reagent. Not all columns of the deposit are shown.

CG11034 #1: droplet/nuclear area B-score, replicate 1 = 0.345
CG11034 #2: droplet/nuclear area B-score, replicate 1 = 0.612
SerRS: droplet/nuclear area B-score, replicate 1 = 0.244
Gprk2 #1: droplet/nuclear area B-score, replicate 1 = 0.129
Gprk2 #2: droplet/nuclear area B-score, replicate 1 = 1.4
vito: droplet/nuclear area B-score, replicate 1 = 2.13
CG15412: droplet/nuclear area B-score, replicate 1 = 0.328
CG15109: droplet/nuclear area B-score, replicate 1 = -0.252
CG2200: droplet/nuclear area B-score, replicate 1 = 2.37
Him: droplet/nuclear area B-score, replicate 1 = 0.512
G9a: droplet/nuclear area B-score, replicate 1 = -1.12
CG12229: droplet/nuclear area B-score, replicate 1 = -0.575
Drat: droplet/nuclear area B-score, replicate 1 = 1.64
Cks30A: droplet/nuclear area B-score, replicate 1 = -0.219
Ir75b: droplet/nuclear area B-score, replicate 1 = -0.389
CtsL2: droplet/nuclear area B-score, replicate 1 = 2.25
CG4294: droplet/nuclear area B-score, replicate 1 = 1.47
CG3117: droplet/nuclear area B-score, replicate 1 = 0.192
CG34342 #1: droplet/nuclear area B-score, replicate 1 = -0.725
CG34342 #2: droplet/nuclear area B-score, replicate 1 = -1.12
CG2224: droplet/nuclear area B-score, replicate 1 = 0.359
Fmo-2: droplet/nuclear area B-score, replicate 1 = 0.958
CG14538 (retired record): droplet/nuclear area B-score, replicate 1 = -0.0408
CG7376: droplet/nuclear area B-score, replicate 1 = -1.33
CG13021: droplet/nuclear area B-score, replicate 1 = 2.39
Spn42Db: droplet/nuclear area B-score, replicate 1 = -0.0208
CG31805: droplet/nuclear area B-score, replicate 1 = 0.0613
Flad2: droplet/nuclear area B-score, replicate 1 = 0.0719
CG3091: droplet/nuclear area B-score, replicate 1 = -0.193
dgt4: droplet/nuclear area B-score, replicate 1 = -0.723
CG10011: droplet/nuclear area B-score, replicate 1 = -1.58
O-fut2: droplet/nuclear area B-score, replicate 1 = -0.725
Ggt-1: droplet/nuclear area B-score, replicate 1 = -0.309
knk: droplet/nuclear area B-score, replicate 1 = 1.22
tth: droplet/nuclear area B-score, replicate 1 = 2.56
HLH4C #1: droplet/nuclear area B-score, replicate 1 = -0.352
HLH4C #2: droplet/nuclear area B-score, replicate 1 = -0.858
Ca-alpha1D: droplet/nuclear area B-score, replicate 1 = -2.26
CG4408: droplet/nuclear area B-score, replicate 1 = -3.89
CG42376 + cin: droplet/nuclear area B-score, replicate 1 = 0.214

As entered above:
Result for Ir75b under “droplet/nuclear area B-score, replicate 1”: -0.389
Under “droplet/nuclear area B-score, replicate 1”, O-fut2 reads -0.725
Fmo-2, droplet/nuclear area B-score, replicate 1 → 0.958
For “droplet/nuclear area B-score, replicate 1”, Drat shows 1.64
Entry of CG3117 in “droplet/nuclear area B-score, replicate 1”: 0.192
